{"source": "patent US20180231524A1", "about": "“IN VITRO METHODS OF IDENTIFYING MODULATORS OF NEUROMUSCULAR JUNCTION ACTIVITY” (MEMORIAL SLOAN-KETTERING CANCER CENTER, priority 2015, published 2018)", "tested_on": "human adult (hMA) and fetal (hMF) myofibers", "test": "acetylcholine stimulation of human myoblast-derived myofibers", "type": "cell-based", "conditions": "for calcium transient in myofibers: Fura2, day 35 of differentiation", "note": "For at least one compound, name, drawing or mass did not settle the structure.", "data": [{"smiles": "CC(=O)OCC[N+](C)(C)C", "note": "[acetylcholine]", "values": [{"measurement": "contraction of adult and fetal myofibers", "setting": "ACh 50 μM, day 10 to day 17 of differentiation", "value": "caused adult and fetal myofibers to contract"}, {"measurement": "calcium transient in myofibers", "value": "induces a robust calcium transient"}, {"measurement": "calcium transient in myofibers", "setting": "listed as ACh", "value": "generated a distinct calcium transient"}]}]}
